Test results published in patent publication US20100233216A1, “USE OF MICROVESICLES (MVS) FOR PREPARING A MEDICAMENT HAVING ADJUVANT ACTIVITY ON ENDOTHELIAL CELL TRANSPLANTATION, PARTICULARLY IN THE TREATMENT OF DIABETES BY PANCREATIC ISLET TRANSPLANTATION, AND RELATED METHOD” (priority 2007, published 2010).
At least one compound was matched to its structure with a doubt left.

Assays:
[1] = test system: freshly purified human islets; test: Endothelial outgrowth from freshly purified islets; assay type: cell-based; details: rapamycin 10 ng/ml
IEC-GFP = test: In vitro angiogenesis assay on Matrigel (capillary-like structures); assay type: cell-based, human; details: rapamycin 10 ng/ml, FIG. 3
IEC [2] = test: Detection of IEC apoptosis (TUNEL); assay type: cell-based, human; details: co-incubation with 10 ng/ml rapamycin
[3] = test system: freshly purified human islets; details: rapamycin 10 ng/ml; cited from earlier work
IEC [4] = test: Effects on IEC summarised in the discussion (proliferation, resistance to apoptosis, migration, outgrowth); assay type: cell-based, human; details: therapeutic doses of rapamycin
IEC [5] = test: Migration of IEC (time-lapse microscopy); assay type: cell-based, human; details: 10 ng/ml rapamycin

Q: Which results are given for `CO[C@H]1C[C@@H]2CC[C@@H](C)[C@@](O)(O2)C(=O)C(=O)N2CCCC[C@H]2C(=O)O[C@H]([C@H](C)C[C@@H]2CC[C@@H](O)[C@H](OC)C2)CC(=O)[C@H](C)/C=C(\C)[C@@H](O)[C@@H](OC)C(=O)[C@H](C)C[C@H](C)/C=C/C=C/C=C/1C` [rapamycin]?
A: effect of rapamycin on endothelial outgrowth induced by EPC-derived MVs [1]: did not completely abolish endothelial outgrowth; effect of rapamycin on MV-induced in vitro angiogenesis (IEC-GFP): did not completely abrogate the angiogenic effect; effect of rapamycin on anti-apoptotic effects of EPC-derived MVs (IEC [2]): not completely abolished; effect of rapamycin on endothelial outgrowth induced by endothelial growth factor-enriched medium [3]: abrogated endothelial outgrowth; effect of rapamycin on trophic effects exerted on IEC by soluble growth factors (IEC [4]): completely inhibits the trophic effects; effect of rapamycin on MV-induced IEC migratory activity (IEC [5]): did not entirely block IEC migratory activity
